No constants are given. Whether binding was seen depends on the method and setting. Binding seen in cells or lysates may run through a third protein. Some binding calls cover weakened binding; strength is not graded here.
Tests used:
Assay in all cases: FRET or BRET; BRET donor/acceptor titration in HEK293 cells; fixed amount of arrestin3–Rluc, increasing amounts of receptor–eYFP; net BRET induced by 1 µM PTH(1–34); one-site binding fit
[1] = biological target: PTH1R PD1 mutant (all serine/threonine residues of cluster 1, S489–S495, to alanine), HA- and eYFP-tagged (human) (UniProt Q03431)
[2] = biological target: parathyroid hormone receptor 1 (PTH1R) wild type, N-terminally HA-tagged, C-terminally eYFP-labelled (human) (UniProt Q03431)
[3] = biological target: PTH1R PD3 mutant (mutations of clusters 1 and 2 combined), HA- and eYFP-tagged (human) (UniProt Q03431)
[4] = biological target: PTH1R PD2 mutant (all serine/threonine residues of cluster 2, S501–T506, to alanine), HA- and eYFP-tagged (human) (UniProt Q03431)

The chains behind the UniProt entries cited, without tags or fusion partners. Where a name states a change or a piece, a line headed by the entry shows the natural chain unless it says otherwise. A line that says so, or that is headed by a name, gives the form on record, which may keep a tag or linker. Residues count along the entry.
parathyroid hormone receptor 1 (PTH1R) wild type, N-terminally HA-tagged, C-terminally eYFP-labelled (Q03431, residues 27-593): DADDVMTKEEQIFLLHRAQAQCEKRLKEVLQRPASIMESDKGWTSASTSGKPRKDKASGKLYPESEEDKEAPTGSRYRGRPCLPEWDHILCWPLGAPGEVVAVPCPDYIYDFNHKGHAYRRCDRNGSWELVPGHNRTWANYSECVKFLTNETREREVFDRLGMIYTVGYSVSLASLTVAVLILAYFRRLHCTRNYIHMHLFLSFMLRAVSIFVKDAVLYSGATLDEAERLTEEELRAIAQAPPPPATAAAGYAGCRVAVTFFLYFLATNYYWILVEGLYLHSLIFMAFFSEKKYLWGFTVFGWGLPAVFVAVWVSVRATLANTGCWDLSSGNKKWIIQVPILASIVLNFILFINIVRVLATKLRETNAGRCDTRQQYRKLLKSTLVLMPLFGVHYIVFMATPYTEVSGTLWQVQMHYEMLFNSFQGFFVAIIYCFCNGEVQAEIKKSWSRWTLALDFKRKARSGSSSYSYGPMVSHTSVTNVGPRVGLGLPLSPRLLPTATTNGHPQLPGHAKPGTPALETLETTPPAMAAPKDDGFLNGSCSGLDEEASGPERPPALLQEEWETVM
PTH1R PD1 mutant (all serine/threonine residues of cluster 1, S489–S495, to alanine), HA- and eYFP-tagged (Q03431, form named): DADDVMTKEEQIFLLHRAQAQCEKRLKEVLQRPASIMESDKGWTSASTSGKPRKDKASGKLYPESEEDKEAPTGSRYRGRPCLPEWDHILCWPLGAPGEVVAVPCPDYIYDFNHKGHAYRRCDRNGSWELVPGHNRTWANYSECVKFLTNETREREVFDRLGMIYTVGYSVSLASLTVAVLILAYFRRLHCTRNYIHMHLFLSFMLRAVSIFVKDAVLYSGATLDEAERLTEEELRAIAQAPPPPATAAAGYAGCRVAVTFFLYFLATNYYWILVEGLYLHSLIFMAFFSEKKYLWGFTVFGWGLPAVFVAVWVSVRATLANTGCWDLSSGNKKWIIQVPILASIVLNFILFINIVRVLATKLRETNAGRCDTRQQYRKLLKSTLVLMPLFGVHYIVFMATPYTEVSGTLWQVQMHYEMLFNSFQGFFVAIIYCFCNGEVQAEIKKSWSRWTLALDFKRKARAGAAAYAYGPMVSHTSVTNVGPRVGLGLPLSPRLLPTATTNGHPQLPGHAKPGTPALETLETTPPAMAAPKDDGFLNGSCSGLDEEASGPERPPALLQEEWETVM
PTH1R PD3 mutant (mutations of clusters 1 and 2 combined), HA- and eYFP-tagged (Q03431, form named): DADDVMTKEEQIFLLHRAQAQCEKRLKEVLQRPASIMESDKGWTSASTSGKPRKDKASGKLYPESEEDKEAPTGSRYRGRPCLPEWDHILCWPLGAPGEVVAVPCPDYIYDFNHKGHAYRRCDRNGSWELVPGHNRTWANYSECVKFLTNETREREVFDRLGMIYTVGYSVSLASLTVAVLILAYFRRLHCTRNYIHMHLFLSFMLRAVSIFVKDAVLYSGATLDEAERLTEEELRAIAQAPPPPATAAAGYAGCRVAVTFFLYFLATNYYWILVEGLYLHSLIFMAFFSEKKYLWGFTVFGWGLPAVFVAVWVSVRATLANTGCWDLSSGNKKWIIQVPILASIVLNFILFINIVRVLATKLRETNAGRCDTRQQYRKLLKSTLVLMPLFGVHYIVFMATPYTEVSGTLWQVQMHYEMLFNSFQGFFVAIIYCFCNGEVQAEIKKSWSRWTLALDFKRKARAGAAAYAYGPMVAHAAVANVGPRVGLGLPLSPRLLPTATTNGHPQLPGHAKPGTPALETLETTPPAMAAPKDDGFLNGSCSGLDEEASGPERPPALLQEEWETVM
PTH1R PD2 mutant (all serine/threonine residues of cluster 2, S501–T506, to alanine), HA- and eYFP-tagged (Q03431, form named): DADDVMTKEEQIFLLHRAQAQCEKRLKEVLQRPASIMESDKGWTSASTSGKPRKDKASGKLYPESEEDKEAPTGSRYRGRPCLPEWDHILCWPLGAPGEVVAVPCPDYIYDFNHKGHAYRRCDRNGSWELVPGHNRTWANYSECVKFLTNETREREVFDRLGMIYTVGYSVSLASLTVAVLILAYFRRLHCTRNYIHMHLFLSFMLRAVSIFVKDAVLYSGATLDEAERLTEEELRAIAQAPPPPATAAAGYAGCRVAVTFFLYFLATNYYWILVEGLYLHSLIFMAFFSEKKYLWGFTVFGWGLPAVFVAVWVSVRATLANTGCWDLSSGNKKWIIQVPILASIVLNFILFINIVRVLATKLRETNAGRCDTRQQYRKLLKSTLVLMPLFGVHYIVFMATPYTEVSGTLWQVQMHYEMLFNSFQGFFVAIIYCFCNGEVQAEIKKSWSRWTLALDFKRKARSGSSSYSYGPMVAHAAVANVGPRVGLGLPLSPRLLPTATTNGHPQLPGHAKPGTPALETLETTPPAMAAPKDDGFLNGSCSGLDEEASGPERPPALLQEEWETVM

binding [1]: binds | binding [2]: binds | binding [3]: binds | binding [4]: binds
Substance: arrestin3–Renilla luciferase (Rluc) (from UniProt P32121 1-409)
